Test results taken from PubChem BioAssay AID1671190 (National Center for Advancing Translational Sciences (NCATS), 2021).
In all, about 580,000 compounds went through this assay and about 6,100 (1.1%) were called active. Inconclusive results, whose numbers are uncertain, are shown with a selection of clear calls. The call rests on the fitted dose curve; in most records, active means well fitted inhibition curve with a large enough effect; inconclusive means small, poorly fitted or top-dose-only effect, or another doubt; inactive means no such curve, though single readings can be large or run the other way. Potencies of inconclusive entries are doubtful fits and often do not repeat.

Chains of the proteins cited; added tags and fusions are not shown. Lines headed by an entry give the natural chain unless they say otherwise; changes in a name come on top.
UniProt P18054: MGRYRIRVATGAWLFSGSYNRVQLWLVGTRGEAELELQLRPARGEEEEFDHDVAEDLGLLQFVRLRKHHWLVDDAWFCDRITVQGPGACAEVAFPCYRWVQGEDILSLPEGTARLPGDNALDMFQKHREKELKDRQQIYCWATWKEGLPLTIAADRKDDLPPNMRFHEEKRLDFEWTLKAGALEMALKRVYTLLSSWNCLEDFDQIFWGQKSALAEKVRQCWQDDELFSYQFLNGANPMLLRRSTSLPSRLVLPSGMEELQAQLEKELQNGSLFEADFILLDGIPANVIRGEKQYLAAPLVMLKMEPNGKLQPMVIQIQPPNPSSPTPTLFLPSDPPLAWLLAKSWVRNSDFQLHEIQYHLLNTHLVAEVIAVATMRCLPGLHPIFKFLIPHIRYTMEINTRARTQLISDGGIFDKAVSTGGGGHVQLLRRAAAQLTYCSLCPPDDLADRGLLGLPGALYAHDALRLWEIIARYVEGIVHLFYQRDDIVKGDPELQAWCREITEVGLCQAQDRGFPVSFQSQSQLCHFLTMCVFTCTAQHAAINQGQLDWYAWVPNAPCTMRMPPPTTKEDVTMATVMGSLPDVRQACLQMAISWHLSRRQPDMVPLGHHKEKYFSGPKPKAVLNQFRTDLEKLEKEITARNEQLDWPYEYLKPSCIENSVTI

What follows are compounds tested against Polyunsaturated fatty acid lipoxygenase ALOX12 (Homo sapiens) (UniProt P18054) (assay: Primary qHTS assay for inhibitors of human arachidonate 12S-lipoxygenase (ALOX12): Round 2). Conditions: purified 12hLO, xylenol orange hydroperoxide absorbance; series mostly up to 108 µM.
How it was run: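 Hydroperoxide product was detected by ferrous iron/xylenol orange as the 573 to 405 nm absorbance ratio. Arachidonic acid at 40 uM (final) was turned over for 30 min at room temperature by 150 nM human 12hLO, pH 7.0 Hepes buffer, after 15 min compound preincubation.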
Potency means the concentration at half of the fitted maximal effect.

Row | Compound | Potency
1 | Cc1c(C(=O)NCc2ccc(F)cc2)oc2ccc(S(=O)(=O)N3CCOCC3)cc12 | inactive
2 | O=C1CCCC2=C1C(c1ccc(Cl)c(Cl)c1)n1nnnc1N2 (stereo not drawn) | inconclusive: 100 µM [inhibitor, single point]
3 | COc1ccc(S(=O)(=O)N2CCOCC2)cc1NC(=O)COc1ccc(C(C)=O)cc1OC | inconclusive: 89.1 µM [inhibitor, partial curve, poor fit]
4 | Cn1c(=O)c2c(ncn2CC(COCc2cccc(F)c2)OCc2cccc(F)c2)n(C)c1=O (stereo not drawn) | inactive
5 | C=CCn1cc(/C=N/NC(=O)COc2cccc3cccnc23)c2ccccc21 | inactive
6 | COc1cc(C)c2c(c1C)C[C@H](C(C)C(=O)N1CCN(c3ccc(F)cc3)CC1)CC2 (stereo partly drawn) | inconclusive: 100 µM [inhibitor, partial curve]
7 | CC(=O)NC(NC(=S)Nc1cccc(Br)c1)C(Cl)(Cl)Cl (stereo not drawn) | inconclusive: 50.1 µM [inhibitor, partial curve, poor fit]
8 | CCOC(=O)c1cc(-c2ccc(S(=O)(=O)Nc3ccc(F)c(Cl)c3)s2)on1 | inconclusive: 50.1 µM [inhibitor, partial curve, poor fit]
9 | COc1ccccc1N1CCN(CCCS(=O)(=O)c2ccc(Cl)cc2)CC1 | inconclusive: 39.8 µM [inhibitor, partial curve]
10 | Cc1ccc(CN(Cc2ccco2)C(=S)NCC(=O)NC2CC2)cc1 | inconclusive: 22.4 µM [inhibitor, full curve, poor fit]
11 | O=C(Nc1ccc2[nH]ncc2c1)c1ccc(F)cc1 | inactive
12 | CC1CCN(CCCCOc2cccc(C(C)C)c2)CC1 | inconclusive: 1.78 µM [inhibitor, full curve, poor fit]
13 | Cc1ccc(C2Cn3nnc(C(=O)N4CCC(C(=O)NCc5ccncc5)CC4)c3CO2)cc1 (stereo not drawn) | inactive
14 | O=S(=O)(N/N=C\c1ccc(-c2ccccc2Cl)o1)c1ccccc1 | inconclusive: 28.2 µM [inhibitor, partial curve, poor fit]
15 | Cc1cc(O)ccc1Nc1nc(-c2sc(N)nc2C)cs1 | inconclusive: 31.6 µM [inhibitor, partial curve, poor fit]
17 | Cc1cccc(C(=O)NC(C)c2ccc(OC(F)F)cc2)n1 (stereo not drawn) | inconclusive: 35.5 µM [inhibitor, single point]
18 | CC(C)(C)CC(=O)N1CC[C@H]2NC(=O)N(c3ccc(Oc4ccccc4)cc3)C(=O)[C@H]21 | inconclusive: 28.2 µM [inhibitor, full curve, poor fit]
19 | Cn1cc(CN2CCN(CC(C)(C)C)C(CCO)C2)c2ccccc21 (stereo not drawn) | inconclusive: 112 µM [inhibitor, partial curve, poor fit]
20 | CCC1SC2=NC(C)=C(C(=O)OC)C(c3ccc(C)cc3)N2C1=O (stereo not drawn) | inconclusive: 56.2 µM [inhibitor, single point]
21 | Cc1ccc(NC(=S)Nc2ccc(S(=O)(=O)Nc3ccccc3)cc2)cc1 | inconclusive: 2.82 µM [inhibitor, full curve, poor fit]
22 | CC1(C)C(=O)NC2=C1C(=O)C(=O)c1ccccc12 | inconclusive: 50.1 µM [inhibitor, partial curve, poor fit]
23 | C[N+](C)(C)CCCCCCC(=O)/C=N/O | inconclusive: 39.8 µM [inhibitor, partial curve]

Looked up by compound from the entries so far, 2 records:
Row | Compound | Potency
12 | CC1CCN(CCCCOc2cccc(C(C)C)c2)CC1 | inconclusive: 1.78 µM [inhibitor, full curve, poor fit]
18 | CC(C)(C)CC(=O)N1CC[C@H]2NC(=O)N(c3ccc(Oc4ccccc4)cc3)C(=O)[C@H]21 | inconclusive: 28.2 µM [inhibitor, full curve, poor fit]

(continued)

Row | Compound | Potency
24 | Cn1nc([N+](=O)[O-])nc1S(C)(=O)=O | inactive
25 | Cc1nc(N)sc1N=Nc1ccccc1C(F)(F)F | inactive
26 | CC1CCc2c(sc(NC(=O)/C=C/c3cccs3)c2C(=O)O)C1 (stereo not drawn) | inconclusive: 44.7 µM [inhibitor, partial curve, poor fit]
27 | O=C(O)c1nnn(-c2ccc([N+](=O)[O-])cc2)c1-c1ccccc1 | inconclusive: 25.1 µM [inhibitor, partial curve, poor fit]
28 | Cc1ccc(-c2nc(S(=O)(=O)c3ccc(Cl)cc3)c(N3CCCCC3)o2)cc1 | inconclusive: 112 µM [inhibitor, partial curve, poor fit]
29 | Cc1nn(C)c2ncc(C(=O)c3ccccc3O)cc12 | inactive
30 | CCCCN(C)CC(O)Cn1cc(/C=C/C(=O)c2ccc(OC)c(OC)c2)c2ccccc21 (stereo not drawn) | inconclusive: 56.2 µM [inhibitor, partial curve, poor fit]
31 | O=C(N/N=C/c1ccccc1[N+](=O)[O-])c1ccc(NS(=O)(=O)c2cccs2)cc1 | inconclusive: 35.5 µM [inhibitor, partial curve, poor fit]
32 | c1coc(CNC2CCCCCCC2)c1 | inconclusive: 3.16 µM [inhibitor, full curve, poor fit]
33 | CCc1cccc2c(C(=O)COC(=O)c3cccs3)c[nH]c12 | inactive
34 | O=C(Nc1cccc(C(F)(F)F)c1)C(=Cc1cccc(Oc2ccccc2)c1)C(=O)Nc1cccc(C(F)(F)F)c1 | inconclusive: 126 µM [inhibitor, single point]
35 | O=c1c(-c2cccs2)nc2cnc(Oc3cccc(Cl)c3)nc2n1C[C@H]1CCCO1 | inactive
36 | CCN1CCc2[nH]c3ccccc3c2C1 | inconclusive: 25.1 µM [inhibitor, partial curve, poor fit]
37 | O=C(Nc1ccc(Cl)cc1)N[C@@H]1c2c(ccc3ccccc23)OC[C@@H]1CO | inconclusive: 50.1 µM [inhibitor, partial curve, poor fit]
38 | O=C(CCc1ncc(-c2ccc(Cl)cc2Cl)o1)NCC1CCCO1 (stereo not drawn) | inconclusive: 31.6 µM [inhibitor, single point]
39 | COc1ccc(CCNC(=O)Cn2c(C)cc3nc4n(c(=O)c32)CCCCC4)cc1OC | inconclusive: 50.1 µM [inhibitor, partial curve]
40 | COC(=O)C1CN(C(=O)COc2ccc(Cl)c(C)c2)c2ccccc2O1 (stereo not drawn) | inactive
41 | COc1ccc2ccc(OC)c(/C=N/NC(=O)c3cc4ccccc4o3)c2c1 | inactive
42 | Cc1csc(Sc2nc3c(c(=O)[nH]c(=O)n3C)n2CCCc2ccccc2)n1 | inactive
43 | O=C(CSc1ncnc2nc[nH]c12)NCc1cccc(Cl)c1 | inconclusive: 141 µM [inhibitor, partial curve, poor fit]
44 | COc1ccc(-n2cc(CNCCCn3ccnc3)c(-c3cccc(F)c3)n2)cc1 | inconclusive: 50.1 µM [inhibitor, partial curve, poor fit]
45 | O=C(Nc1ccc(F)cc1F)c1ccc2c(c1)[nH]c(=O)n2Cc1ccc(F)cc1 | inactive
46 | C[C@H](CO)N1C[C@H](C)[C@@H](CN(C)C(=O)Cc2ccccc2)OCCCC[C@H](C)Oc2ccc(NC(=O)NC3CCCCC3)cc2C1=O | inconclusive: 89.1 µM [inhibitor, partial curve, poor fit]

Look-ups from above.
Potency, O=C(CSc1ncnc2nc[nH]c12)NCc1cccc(Cl)c1 reads inconclusive: 141 µM [inhibitor, partial curve, poor fit]
Potency, COc1ccc2ccc(OC)c(/C=N/NC(=O)c3cc4ccccc4o3)c2c1 reads inactive
Potency, COc1ccc(CCNC(=O)Cn2c(C)cc3nc4n(c(=O)c32)CCCCC4)cc1OC reads inconclusive: 50.1 µM [inhibitor, partial curve]
Potency, c1coc(CNC2CCCCCCC2)c1 reads inconclusive: 3.16 µM [inhibitor, full curve, poor fit]

The listing continues.

Row | Compound | Potency
47 | CCn1c(=O)c2c(n3c(=S)[nH]nc13)-c1ccccc1CC21CCCCC1 | active: 14.1 µM
48 | Cc1cc2cccc(C(=O)N3CCC(Cn4cc(CO)nn4)CC3)c2o1 | inconclusive: 10 µM [inhibitor, full curve]
49 | COc1cccc(-c2n[nH]c3c2CN(C(=O)c2oc(C)cc2C)CC3)c1 | inactive
50 | Cc1cc(NC(=O)CSCC(=O)Nc2nc3ccccc3[nH]2)no1 | inactive
51 | O=C(COC(=O)c1ccc(O)cc1O)Nc1cc(-c2ccccc2)nn1-c1ccccc1 | inconclusive: 44.7 µM [inhibitor, partial curve]
52 | COc1cc(C(=O)Nc2cc(Cl)ccc2OCC2CCCO2)cc(OC)c1OC (stereo not drawn) | inactive
53 | CC(C)c1nnc(NC(=O)c2nc(SCc3ccc(F)cc3)ncc2Cl)s1 | inactive
54 | NC12CC3CC(CC(C3)C1)C2 | inconclusive: 24.3 µM [inhibitor, partial curve]
55 | Cc1c(NP(=O)(Oc2ccccc2F)Oc2ccccc2F)c(=O)n(-c2ccccc2)n1C | inactive
56 | O=CNNC(=S)NCc1ccc(Cl)cc1 | inconclusive: 89.1 µM [inhibitor, single point]
57 | O=C(NCc1ccccc1)c1onc(CS(=O)(=O)c2ccc(Cl)cc2)c1C(=O)NCc1ccccc1 | inconclusive: 100 µM [inhibitor, single point]
58 | Cc1c(C(=O)OCC(C)C)[nH]c2c1C(=O)CC(c1ccco1)C2 (stereo not drawn) | inconclusive: 35.5 µM [inhibitor, single point]
59 | Cc1nn(-c2ccc(C(F)(F)F)cn2)c(C)c1Oc1ccccc1O | inconclusive: 100 µM [inhibitor, partial curve, poor fit]
60 | COc1cc(NCCCNC(C)C)c2nccc(C)c2c1 | inconclusive: 44.7 µM [inhibitor, partial curve, poor fit]
61 | CCN(CC)C(=O)C1CCCN(Cc2ccccc2)C1 (stereo not drawn) | inconclusive: 0.251 µM [inhibitor, full curve, poor fit]
62 | CSc1ccc(/C=N/n2c(C3CCCCC3)n[nH]c2=S)cc1 | inconclusive: 31.6 µM [inhibitor, partial curve, poor fit]
63 | Cc1ccc(OCC(=O)Nc2c(NC3CCCC3)c3ccccc3oc2=O)cc1 | inactive
64 | CCC(C)c1ccc(O)c(N)c1 (stereo not drawn) | inconclusive: 50.1 µM [inhibitor, partial curve, poor fit]
65 | O=S(=O)(c1ccccc1)c1ncc(C(F)(F)F)cc1Cl | inconclusive: 1 µM [inhibitor, partial curve, poor fit]
66 | CNC(=O)c1sc(Nc2cc(C)ccc2C)nc1C | inconclusive: 28.2 µM [inhibitor, full curve]
67 | CCCN1C(=O)Cc2ccccc2C1C(=O)N1CCN(c2ccccc2)CC1 (stereo not drawn) | inactive
68 | C=CCNc1nc(NCc2cccc(OC)c2)c2sc(-c3ccccc3)cc2n1 | inconclusive: 44.7 µM [inhibitor, partial curve, poor fit]
